# Measured values as given in the supplement of paper PMC5949888.
# ± gives the standard deviation of the averaged measurements. Most values lie at the floor of the assay. Slopes are relative: functional sequences can read slightly below zero.
# System: Saccharomyces cerevisiae PS128 hsf1 delta, HSF1(1-493) fusion
# Test: growth estimate (transactivation domain function in HSF1 fusion, heat-shock survival) (a.u. (slope of normalised read count over time)); higher = stronger growth at 37°C, i.e. more transactivation activity
# Settings: library: random library
row,Substance,growth estimate
1,LQTLASVGQQNRFFPRAYID,< -0.25
2,LQTRFLADPGQPRVVLFCGC,< -0.25
3,LQTRTRASGEGQVCQMCTPL,< -0.25
4,LQVCAVNRV,< -0.25
5,LQWPTVLRKFVYPYRQVAGH,< -0.25
6,LQY,-0.145
7,LQYPIIRAIASKMVGGAW,< -0.25
8,LRAAMFFLVAIQVR,< -0.25
9,LRAASCSHSVVRGSLTCLLG,< -0.25
10,LRACVDSFTIKEVYNAAERY,< -0.25
11,LRAELAYKHTRIVQIRTDFR,< -0.25
12,LRAEPS,< -0.25
13,LRAHIKGRSTNLV,< -0.25
14,LRARVRCGNAVLNFEALRMT,< -0.25
15,LRCISRLTLGLITSPSLGNG,< -0.25
16,LRDA,< -0.251
17,LRDCL,< -0.25
18,LRDDVLCRCGYGSTYLKKVP,< -0.25
19,LRDGKLVLGII,-0.245
20,LRDSFKTFSVWRLSVSQSLT,< -0.25
21,LRDVCGVNFNISAIDLATPV,< -0.25
22,LREATAGSPI,< -0.25
23,LREIMVDMPIPSWFRVMFF,< -0.25
24,LRESRLADLCPYFT,-0.246
25,LRFWQRFDIGPLFPVDAE,< -0.25
26,LRGAFIGVKAPGHAGRPSYH,< -0.25

# Copied from above (four entries):
row,Substance,growth estimate
5,LQWPTVLRKFVYPYRQVAGH,< -0.25
6,LQY,-0.145
7,LQYPIIRAIASKMVGGAW,< -0.25
8,LRAAMFFLVAIQVR,< -0.25

# (list continues)

row,Substance,growth estimate
1,LRGKVS,< -0.25
2,LRGLAQGDNEIPLCFSACLG,-0.246
3,LRGQARLRASPSYSHSVARP,< -0.25
4,LRGRCYCFTRYILQP,< -0.25
5,LRGTVVSPQRMKFKEVHCRH,< -0.25
6,LRHGEVCNYRGSC,< -0.25
7,LRHGLLLEHIRQTNGEEECR,< -0.25
8,LRKNCCPSDLASSRA,< -0.25
9,LRKNCSACRGHRIFDRRHRQ,-0.248
10,LRKQGTLADEKCIFR,< -0.25
11,LRKSSDERGIRRLEGRNHEA,< -0.25
12,LRKTLQEFGRCSKEMSRGKY,< -0.25
13,LRKVRLSG,< -0.25
14,LRLGHKLSGGIRLDKYGGPI,< -0.25
15,LRLGSIRRKGSLRP,< -0.25
16,LRLHSRPPVECECHRASLFR,< -0.25
17,LRLIRTVSRPSRRIPGVGRF,< -0.25
18,LRLLRLSGFSSCCQRRWPSL,< -0.25
19,LRLLWVRLASYT,< -0.25
20,LRLRGNAGSSFRF,< -0.25
21,LRLRSRSVLPYKTAHDPV,< -0.25
22,LRLRWSVVLDRGVDAS,< -0.25
23,LRLTISR,< -0.25
24,LRLYIGASCVQTVEVRSARM,< -0.25
25,LRMA,< -0.25
26,LRNFNLFFKGIGVNMACRCT,< -0.25

row,Substance,growth estimate
1,LRNLTSIY,< -0.25
2,LRNTAYFSLG,< -0.25
3,LRPDTARRMGTGRVTPELAG,< -0.25
4,LRPVRLVTREFCQRKALHVE,< -0.25
5,LRQF,< -0.25
6,LRQHRLNVTVTS,< -0.25
7,LRQIT,< -0.25
8,LRQKVGLL,< -0.25
9,LRQPRTGSSLSAAHIGLRGL,< -0.25
10,LRQVGQGPS,< -0.25
11,LRR,-0.2491 ± 0.0021
12,LRRDAPLIAARGKRVLYR,< -0.25
13,LRRFGMEASRGHVRIVDGSR,< -0.25
14,LRRFSGDSAQSWIA,< -0.25
15,LRRGTSKANPTDWFTSLAK,< -0.25
16,LRRHDRGQGCWQWRYR,< -0.25
17,LRRIGEELKRG,< -0.25
18,LRRPERLLSIIISTTSV,< -0.25
19,LRRPRNVGALLRNLIPDLKV,< -0.25
20,LRRRPGV,< -0.25
21,LRRRPKVCYSWRYV,< -0.25
22,LRRRSATRGSSGAVNDKHVL,< -0.25
23,LRRSLSGEGRLLRIGG,< -0.25
24,LRRTGSGDDSGARQHPREVL,< -0.25
25,LRSHVGWAEGYRSETIAVHV,< -0.25
26,LRSPVVSSR,< -0.25

# In another format: entries from further up.
row	Substance	growth estimate
2	LRNTAYFSLG	< -0.25
8	LRQKVGLL	< -0.25

# Following part.

row,Substance,growth estimate
1,LRSPYSP,< -0.25
2,LRSRGTLSCECVCGVLTVVT,-0.243
3,LRSTDLVRDVHVG,< -0.25
4,LRSWDPGHKSRQSHAGRVSS,< -0.25
5,LRTGRLFTVWSRTTTIHEEL,< -0.25
6,LRTVSEGRGTVRFDTWGRHR,< -0.25
7,LRV,< -0.25
8,LRVAAYL,< -0.25
9,LRVFTASWRVSAKSSIIQGA,< -0.25
10,LRVGTMK,< -0.25
11,LRVLVSARNLDALP,< -0.25
12,LRVNGSTVTVSPLSFATLDP,< -0.25
13,LRVPVHATYRQDTIDQGPLP,< -0.25
14,LRVQRR,< -0.25
15,LRVRAMPYQVSGLRVNSDSL,< -0.25
16,LRVTTFSIKSASRLQCRTAC,< -0.25
17,LRWRL,< -0.25
18,LRY,< -0.25
19,LRYIEV,< -0.25
20,LRYPMAIGGYHGLPVL,-0.245
21,LRYVVRWGPAVLLQTILWYR,< -0.25
22,LSADSAERVVTLT,< -0.25
23,LSAFELAAPVSGHATSAPPR,< -0.25
24,LSARKSGSPFGGSFAPLCVS,< -0.25
25,LSAW,< -0.25
26,LSAYRPCVCLRTRLRSVLLD,< -0.25

# Rewritten tab-delimited: part of the list above
row	Substance	growth estimate
17	LRWRL	< -0.25
18	LRY	< -0.25

# The list continues.

row,Substance,growth estimate
1,LSC,-0.245
2,LSCFRLPAPSRLP,< -0.25
3,LSCHACR,< -0.25
4,LSCRLTKSARPAG,< -0.25
5,LSCSLFQSAPDLQVFYRS,0.0112
6,LSDADPCWLGQ,< -0.25
7,LSDVREC,< -0.25
8,LSEKFGSV,< -0.25
9,LSEPEW,< -0.25
10,LSEPWYAEKFPTLTVSGKPN,< -0.25
11,LSEQSGYECLREIR,< -0.25
12,LSF,< -0.25
13,LSFLTGSNIQPRFPTGVCT,< -0.25
14,LSFWPLTTWLALKGLHSDLR,< -0.25
15,LSGE,< -0.25
16,LSGEGFRAQGFTILGPRRQC,< -0.25
17,LSGETLYLRGLGSRRPPPRH,< -0.25
18,LSGGLFFNEERSRELYHLGK,< -0.25
19,LSGKLSEDWWVECWQGHASR,< -0.25
20,LSGLSDYQLAT,-0.185
21,LSGPGLSVIAKGKSWNPH,< -0.25
22,LSGPWLGLA,-0.246
23,LSGSLGTG,< -0.25
24,LSGSTGLLT,< -0.25
25,LSGTI,-0.248
26,LSHLPGSVGRSFVRDYHKVA,< -0.25

row,Substance,growth estimate
1,LSISRGSSVRRCSLRR,< -0.25
2,LSIVA,< -0.25
3,LSIWRPAFEGQL,< -0.25
4,LSKLESS,< -0.25
5,LSKRSNVHSRWGGTPGDLIT,< -0.25
6,LSKRVERGLKTVRRIGIFGG,< -0.25
7,LSLLG,< -0.25
8,LSLLIANTRRELCGLSSIPL,< -0.25
9,LSLSGFRSQSGARLACRLIL,< -0.25
10,LSLVRGRKN,< -0.25
11,LSMAVCRIYRMKTRSQISQT,< -0.25
12,LSNGEQPGDNGCVRESPSKI,< -0.25
13,LSNGSRNPSR,< -0.25
14,LSPASNIALFLSGPIADR,< -0.25
15,LSPGDAHDGYSFARTYVYCC,-0.237
16,LSQ,< -0.25
17,LSQFS,< -0.25
18,LSQNCSLAKQTLFFAGQPAI,-0.248
19,LSQSGGFRGVLTSQEGVQLP,-0.243
20,LSRARGDTR,< -0.25
21,LSRCGECYLYRGLLL,< -0.25
22,LSRCQVIQRWPVVVLVLVGN,< -0.25
23,LSRFCP,< -0.25
24,LSRGCWSSGARGWSTSSGEW,< -0.25
25,LSRHAPRGPHV,< -0.25
26,LSRRDWCQHQQDGNICSWHY,< -0.25

row,Substance,growth estimate
1,LSRRGI,< -0.25
2,LSRSALWGTFSGS,< -0.25
3,LSRSTRIQSIRGG,< -0.25
4,LSRTFIGRSVYSSPMRRGL,< -0.25
5,LSSIVNGLVPTQVSGYG,< -0.25
6,LSSLEFL,< -0.25
7,LSSNVIRLQVVQESASFTPC,< -0.25
8,LSTQVSKRD,< -0.25
9,LSTTTFTRRGRGAISCTRNI,< -0.25
10,LSVAQGTGRSGIPSRVPHAG,< -0.25
11,LSVGTREEVVWWELGLQSN,0.0527
12,LSVMCRR,< -0.25
13,LSVYSSLGVI,-0.25
14,LSWFFLADVENSDLDTEGNG,0.98
15,LSY,< -0.25
16,LTAITRSSGNHSVCTTASEV,< -0.25
17,LTALGRP,< -0.25
18,LTAVIGLT,< -0.25
19,LTCADVQGRARSY,< -0.25
20,LTCCSIRFSIPSSG,< -0.25
21,LTCGPLILFLGGHEGGLWVS,< -0.25
22,LTCQLWILVLWSISSDGRQA,< -0.25
23,LTCWLAVRKFLTGRGIFYRA,< -0.25
24,LTEVPGQ,< -0.25
25,LTFE,< -0.25
26,LTFFPEGREYSWIERYTVIG,< -0.25

row,Substance,growth estimate
1,LTGGPKQLKSHTWCR,< -0.25
2,LTGIYTHTPEC,< -0.25
3,LTGLFLSQRYVEWEGPTLVR,< -0.25
4,LTHPGRRRTPIFTSKDTFEV,< -0.25
5,LTHQLEN,< -0.25
6,LTIWRVGRWGTLLCLRHKVR,< -0.25
7,LTKKLDGLRLTIRG,< -0.25
8,LTKRTRWHTMLLSCGS,< -0.25
9,LTLGQWVR,< -0.25
10,LTLHGQDLVRNTNFLTGSKA,< -0.25
11,LTMISAIFCWNAR,< -0.25
12,LTNS,< -0.25
13,LTPDGWRYGRQKRASVICRI,< -0.25
14,LTPPKTV,< -0.25
15,LTPVIGCRAKGFSDMDSWYN,< -0.25
16,LTS,-0.247 ± 0.0037
17,LTSERVRL,< -0.25
18,LTSLVHK,< -0.25
19,LTSNG,< -0.25
